PubChem BioAssay AID1224830 | NIAID, 2016
Purpose: 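Regulators of TLR4 signalling towards TNF-alpha in macrophage-like cells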 (primary screen). Cells: human THP-1 monocytic leukaemia cells, TNF dual-luciferase reporter clone, PMA-differentiated to macrophage-like cells. Reagents: siRNA pool against human genes, 50 nM. Duration: LPS for 4 h, given about 3 days after siRNA transfection. Challenge: bacterial LPS (TLR4 ligand), 10 ng/ml. Measurement: 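Ratio of firefly to renilla light, scaled to the plate median and expressed as a robust z-score per replicate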. Reading the numbers: TNF reporter robust z-score: higher = stronger TNF reporter response to LPS. Active means: 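a well is active when its z-score exceeds 2.8 or falls below -1.5; control wells carry no call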.
This is an unselected part of about 18,000 deposited reagents. Over the whole deposit, about 2,900 (16%) were called active. 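Calls are made per well; low scores hint the gene aids the LPS response, high scores that it dampens it.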 Repeated entries: four replicate wells of each siRNA pool. No sequences are given here.

The first 8 entries as a preview:
target gene | TNF reporter robust z-score | call
PDK2 | 0.38 | inactive
PDK2 | -0.2 | inactive
PDK2 | -0.24 | inactive
PDK2 | -0.63 | inactive
THAP6 | 2.74 | inactive
THAP6 | 2.91 | active
THAP6 | -0.2 | inactive
THAP6 | 1.55 | inactive

Main list, from the start:
target gene | TNF reporter robust z-score | call
PDK2 | 0.38 | inactive
PDK2 | -0.2 | inactive
PDK2 | -0.24 | inactive
PDK2 | -0.63 | inactive
THAP6 | 2.74 | inactive
THAP6 | 2.91 | active
THAP6 | -0.2 | inactive
THAP6 | 1.55 | inactive
TMEM71 | 2.26 | inactive
TMEM71 | 3.02 | active
TMEM71 | 2.3 | inactive
TMEM71 | 2.14 | inactive
STK16 | 0.34 | inactive
STK16 | -0.74 | inactive
STK16 | -0.66 | inactive
STK16 | -0.89 | inactive
MLNR | -1.04 | inactive
MLNR | -0.43 | inactive
MLNR | -0.03 | inactive
MLNR | -0.88 | inactive
ASGR2 | 1.07 | inactive
ASGR2 | 0.71 | inactive
ASGR2 | 0.62 | inactive
ASGR2 | 0.64 | inactive
KRT1 | 0.17 | inactive
KRT1 | 1.49 | inactive
KRT1 | 0.22 | inactive
KRT1 | 0.85 | inactive
OR2D3 | -0.71 | inactive
OR2D3 | -0.76 | inactive
OR2D3 | -0.35 | inactive
TBC1D3F | 0.71 | inactive
TBC1D3F | -0.84 | inactive
TBC1D3F | -0.41 | inactive
TBC1D3F | 0.45 | inactive
TTC19 | -1.38 | inactive
TTC19 | -1.58 | active
TTC19 | -1.32 | inactive
TTC19 | -1.13 | inactive
FCGR2C | 1.02 | inactive
FCGR2C | 1.48 | inactive
FCGR2C | 1.13 | inactive
FCGR2C | 0.95 | inactive
SERTAD4 | -1.04 | inactive
SERTAD4 | 0.19 | inactive
SERTAD4 | -1.23 | inactive
SERTAD4 | -0.91 | inactive
PDE1B | -0.52 | inactive
PDE1B | -0.55 | inactive
PDE1B | -1.19 | inactive
PDE1B | -1.32 | inactive
WNT9A | -0.6 | inactive
WNT9A | 0.93 | inactive
WNT9A | -1.18 | inactive
WNT9A | -0.23 | inactive
FAM89B | 0 | inactive
FAM89B | -0.18 | inactive
FAM89B | -0.83 | inactive
FAM89B | 1.16 | inactive
C10orf55 | -0.58 | inactive
C10orf55 | -1.16 | inactive
C10orf55 | -1.09 | inactive
C10orf55 | 0.25 | inactive
MROH7 | -1.44 | inactive
MROH7 | -1.23 | inactive
MROH7 | -0.39 | inactive
MROH7 | -1.28 | inactive
AMFR | 0.15 | inactive
AMFR | 0.48 | inactive
AMFR | 1.3 | inactive
AMFR | 0.19 | inactive
NFYA | -0.45 | inactive
NFYA | 4.28 | active
NFYA | -0.02 | inactive
NFYA | -0.19 | inactive
